Taken from: PubChem BioAssay AID686938 (Drosophila RNAi Screening Center, 2013)
Screen: 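Looking for CRAC channel components and the factors controlling them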 (primary screen). Cell system: Drosophila S2R+ cells. Reagents: long dsRNA against Drosophila genes, about 0.25 µg dsRNA per well, roughly 10,000 cells. Duration: 5 days of knock-down before the calcium assay. Treatment: thapsigargin (SERCA pump blocker) to empty calcium stores; entry signal taken 4 min after adding it. Read-out: 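Per-well fluo-4 fluorescence in two replicates, unnormalised, measured in resting cells and 4 min after store depletion by the SERCA blocker thapsigargin; ratio of the two present in few wells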. Reading the numbers: calcium entry signal: higher = stronger calcium signal after store depletion; resting calcium signal: higher = higher resting calcium signal. Units: calcium entry signal in fluorescence units; resting calcium signal in fluorescence units. Call rule: 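Hit if the duplicate-averaged plate z-score for entry over resting signal is under −3; wells with weak total dye signal (Fmax z < −2) or more than 5 off-targets removed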. Meaning of the calls: active = strongly reduced calcium entry; inactive = no strong reduction.
In all, the deposit lists about 23,000 reagents; shown is a random part of those with a known target gene and a result. In the full data, 75 (0.33%) got an active call. 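Raw plate signals without normalisation; calls rest on plate z-scores that were not deposited; ratio present for only 364 wells.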 A plus sign joins genes that one reagent is predicted to hit. Not stated in the record: the dose of the treatment.

{"gene":"Obp57c + Obp57b","amplicon":"DRSC21914","calcium entry signal, replicate 1":2.94e7,"calcium entry signal, replicate 2":2.75e7,"resting calcium signal, replicate 1":1.81e7,"resting calcium signal, replicate 2":1.50e7,"Outcome":"inactive"}
{"gene":"CG12017","amplicon":"DRSC08225","calcium entry signal, replicate 1":2.22e7,"calcium entry signal, replicate 2":2.64e7,"resting calcium signal, replicate 1":1.13e7,"resting calcium signal, replicate 2":1.32e7,"Outcome":"inactive"}
{"gene":"CG31676","amplicon":"DRSC02387","calcium entry signal, replicate 1":4.69e7,"calcium entry signal, replicate 2":5.08e7,"resting calcium signal, replicate 1":2.37e7,"resting calcium signal, replicate 2":2.17e7,"Outcome":"inactive"}
{"gene":"teq (Tequila)","amplicon":"DRSC10298","calcium entry signal, replicate 1":3.59e7,"calcium entry signal, replicate 2":4.23e7,"resting calcium signal, replicate 1":1.72e7,"resting calcium signal, replicate 2":1.83e7,"Outcome":"inactive"}
{"gene":"teq (Tequila)","amplicon":"DRSC11301","calcium entry signal, replicate 1":3.16e7,"calcium entry signal, replicate 2":3.44e7,"resting calcium signal, replicate 1":1.67e7,"resting calcium signal, replicate 2":1.63e7,"Outcome":"inactive"}
{"gene":"teq (Tequila)","amplicon":"DRSC11302","calcium entry signal, replicate 1":3.08e7,"calcium entry signal, replicate 2":4.27e7,"resting calcium signal, replicate 1":1.47e7,"resting calcium signal, replicate 2":1.84e7,"Outcome":"inactive"}
{"gene":"CG13581","amplicon":"DRSC04216","calcium entry signal, replicate 1":4.40e7,"calcium entry signal, replicate 2":5.37e7,"resting calcium signal, replicate 1":2.12e7,"resting calcium signal, replicate 2":2.36e7,"Outcome":"inactive"}

In a second layout: 2 of the entries above.
gene | amplicon | calcium entry signal, replicate 1 | calcium entry signal, replicate 2 | resting calcium signal, replicate 1 | resting calcium signal, replicate 2 | Outcome
teq (Tequila) | DRSC10298 | 3.59e7 | 4.23e7 | 1.72e7 | 1.83e7 | inactive
teq (Tequila) | DRSC11301 | 3.16e7 | 3.44e7 | 1.67e7 | 1.63e7 | inactive

Continued:
{"gene":"CG10177","amplicon":"DRSC14201","calcium entry signal, replicate 1":3.51e7,"calcium entry signal, replicate 2":4.71e7,"resting calcium signal, replicate 1":1.83e7,"resting calcium signal, replicate 2":1.86e7,"Outcome":"inactive"}
{"gene":"CG6484","amplicon":"DRSC06991","calcium entry signal, replicate 1":2.99e7,"calcium entry signal, replicate 2":3.09e7,"resting calcium signal, replicate 1":1.48e7,"resting calcium signal, replicate 2":1.55e7,"Outcome":"inactive"}
{"gene":"CG2321","amplicon":"DRSC15439","calcium entry signal, replicate 1":4.47e7,"calcium entry signal, replicate 2":4.78e7,"resting calcium signal, replicate 1":1.98e7,"resting calcium signal, replicate 2":2.21e7,"Outcome":"inactive"}
{"gene":"Adsl (Adenylosuccinate lyase)","amplicon":"DRSC15500","calcium entry signal, replicate 1":3.29e7,"calcium entry signal, replicate 2":2.81e7,"resting calcium signal, replicate 1":1.63e7,"resting calcium signal, replicate 2":1.32e7,"Outcome":"inactive"}
{"gene":"CG9945","amplicon":"DRSC07347","calcium entry signal, replicate 1":2.40e7,"calcium entry signal, replicate 2":3.21e7,"resting calcium signal, replicate 1":1.24e7,"resting calcium signal, replicate 2":1.47e7,"Outcome":"inactive"}
{"gene":"CG31141","amplicon":"DRSC13646","calcium entry signal, replicate 1":3.37e7,"calcium entry signal, replicate 2":3.79e7,"resting calcium signal, replicate 1":1.68e7,"resting calcium signal, replicate 2":1.85e7,"Outcome":"inactive"}
{"gene":"Cand1 (Cullin-associated and neddylation-dissociated 1)","amplicon":"DRSC01992","calcium entry signal, replicate 1":4.71e7,"resting calcium signal, replicate 1":2.50e7,"Outcome":"inactive"}
{"gene":"Or94a (Odorant receptor 94a)","amplicon":"DRSC16772","calcium entry signal, replicate 1":5.49e7,"calcium entry signal, replicate 2":5.68e7,"resting calcium signal, replicate 1":2.39e7,"resting calcium signal, replicate 2":2.57e7,"Outcome":"inactive"}
{"gene":"Cpr47Ef (Cuticular protein 47Ef)","amplicon":"DRSC06336","calcium entry signal, replicate 1":2.98e7,"calcium entry signal, replicate 2":2.78e7,"resting calcium signal, replicate 1":1.58e7,"resting calcium signal, replicate 2":1.34e7,"Outcome":"inactive"}
{"gene":"Cpr47Ef (Cuticular protein 47Ef)","amplicon":"DRSC22450","calcium entry signal, replicate 1":3.65e7,"calcium entry signal, replicate 2":2.89e7,"resting calcium signal, replicate 1":2.10e7,"resting calcium signal, replicate 2":1.44e7,"Outcome":"inactive"}
{"gene":"CG34323","amplicon":"DRSC18916","calcium entry signal, replicate 1":2.75e7,"calcium entry signal, replicate 2":3.82e7,"resting calcium signal, replicate 1":1.25e7,"resting calcium signal, replicate 2":1.75e7,"Outcome":"inactive"}
{"gene":"Lrpprc2 (Leucine-rich pentatricopeptide repeat containing 2)","amplicon":"DRSC18605","calcium entry signal, replicate 1":2.35e7,"calcium entry signal, replicate 2":3.29e7,"resting calcium signal, replicate 1":1.16e7,"resting calcium signal, replicate 2":1.50e7,"Outcome":"inactive"}
{"gene":"ATPsyngamma (ATP synthase, gamma subunit)","amplicon":"DRSC14094","calcium entry signal, replicate 1":4.01e7,"calcium entry signal, replicate 2":3.84e7,"resting calcium signal, replicate 1":1.96e7,"resting calcium signal, replicate 2":1.85e7,"Outcome":"inactive"}
{"gene":"CG9795","amplicon":"DRSC12336","calcium entry signal, replicate 1":4.14e7,"calcium entry signal, replicate 2":5.03e7,"resting calcium signal, replicate 1":1.92e7,"resting calcium signal, replicate 2":3.39e7,"Outcome":"inactive"}
